PubChem BioAssay AID1259254 | NCATS, 2017
Aim: 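Genome-wide screen for genes that prevent DNA re-replication in cancer cells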 (primary screen). System: human HCT116 colorectal cancer cells. Reagents: single siRNA against human genes. Timing: 3 days. Detection: 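Imaged Hoechst DNA stain sorts each cell into a cycle phase by DNA amount; per plate, G2 fraction set to 0% for non-targeting and 100% for GMNN siRNA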. Scale: G2 robust z-score and G2 cells, % of GMNN control: higher = more G2 cells, more excess DNA replication; raw share of cells in G2: higher = larger share of cells with G2 DNA content. Hit rule: 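An siRNA counts as active if its G2 robust z-score lies at least 5 MADs above the screen median; here such calls match roughly 38% of GMNN control or more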.
The whole screen tested about 59,000 reagents; below is a random part of them. About 1,550 of them (2.6%) were called active. 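G2 share is only a proxy for re-replication; each gene was hit by three separate siRNAs, and active genes were retested.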 Raw values vary from plate to plate and are shown uncorrected. Entries without a mark were called inactive. The numbers tell different reagents against one gene apart. Not given: the amount of reagent.

| gene knocked down | siRNA no. | G2 robust z-score | G2 cells, % of GMNN control | raw share of cells in G2 (%) |
| --- | --- | --- | --- | --- |
| BECN2 (GeneID 441925) | 1 | 0.998 | 9.99 | 7.48 |
| BECN2 (GeneID 441925) | 2 | 0.939 | 9.57 | 7.05 |
| BECN2 (GeneID 441925) | 3 | 0.65 | 7.54 | 5.68 |
| RPL39 (GeneID 6170) | 1 | 6.78 (active) | 50.7 | 26.5 |
| RPL39 (GeneID 6170) | 2 | 3.09 | 24.7 | 14 |
| RPL39 (GeneID 6170) | 3 | 3.03 | 24.3 | 12.1 |
| RPLP1P7 (GeneID 133609) | 1 | 0.0887 | 3.59 | 3.88 |
| RPLP1P7 (GeneID 133609) | 2 | 0.85 | 8.95 | 7.55 |
| RPLP1P7 (GeneID 133609) | 3 | -0.402 | 0.141 | 3.15 |
| PIGM (GeneID 93183) | 1 | 2.86 | 23.1 | 16.4 |
| PIGM (GeneID 93183) | 2 | 0.413 | 5.87 | 7.49 |
| PIGM (GeneID 93183) | 3 | 1.37 | 12.6 | 9.24 |
| TES (GeneID 26136) | 1 | 2.23 | 18.7 | 10.4 |
| TES (GeneID 26136) | 2 | -0.532 | -0.778 | 5.81 |
| TES (GeneID 26136) | 3 | -0.573 | -1.06 | 3.64 |
| ADGRB1 (GeneID 575) | 1 | 5.86 (active) | 44.2 | 21.6 |
| ADGRB1 (GeneID 575) | 2 | 2.26 | 18.9 | 11.1 |
| ADGRB1 (GeneID 575) | 3 | 4.29 | 33.1 | 13.4 |
| GLT8D2 (GeneID 83468) | 1 | 0.239 | 4.65 | 5.88 |
| GLT8D2 (GeneID 83468) | 2 | 0.000248 | 2.97 | 5.89 |
| GLT8D2 (GeneID 83468) | 3 | -0.868 | -3.14 | 4.12 |
| ZNF544 (GeneID 27300) | 1 | -0.158 | 1.86 | 3.45 |
| ZNF544 (GeneID 27300) | 2 | -1.06 | -4.51 | 3.87 |
| ZNF544 (GeneID 27300) | 3 | 1.54 | 13.8 | 7.97 |
| LOC729810 (retired record) (GeneID 729810) | 1 | -0.416 | 0.0401 | 4.11 |
| LOC729810 (retired record) (GeneID 729810) | 2 | -0.662 | -1.69 | 2.65 |
| LOC729810 (retired record) (GeneID 729810) | 3 | -0.0996 | 2.27 | 4 |
| CA12 (GeneID 771) | 1 | -1.07 | -4.59 | 2.28 |
| CA12 (GeneID 771) | 2 | 5.5 (active) | 41.6 | 18.9 |
| CA12 (GeneID 771) | 3 | 5.1 (active) | 38.8 | 18.9 |
| FCGR1A (GeneID 2209) | 1 | -0.837 | -2.92 | 4.15 |
| FCGR1A (GeneID 2209) | 2 | 1.53 | 13.7 | 8.55 |
| FCGR1A (GeneID 2209) | 3 | 0.938 | 9.56 | 8.71 |

9 of these entries in another layout.
ZNF544 (GeneID 27300) #3 → G2 robust z-score = 1.54; G2 cells, % of GMNN control = 13.8; raw share of cells in G2 (%) = 7.97
LOC729810 (retired record) (GeneID 729810) #1 → G2 robust z-score = -0.416; G2 cells, % of GMNN control = 0.0401; raw share of cells in G2 (%) = 4.11
LOC729810 (retired record) (GeneID 729810) #2 → G2 robust z-score = -0.662; G2 cells, % of GMNN control = -1.69; raw share of cells in G2 (%) = 2.65
LOC729810 (retired record) (GeneID 729810) #3 → G2 robust z-score = -0.0996; G2 cells, % of GMNN control = 2.27; raw share of cells in G2 (%) = 4
CA12 (GeneID 771) #1 → G2 robust z-score = -1.07; G2 cells, % of GMNN control = -4.59; raw share of cells in G2 (%) = 2.28
CA12 (GeneID 771) #2 → G2 robust z-score = 5.5 (active); G2 cells, % of GMNN control = 41.6; raw share of cells in G2 (%) = 18.9
CA12 (GeneID 771) #3 → G2 robust z-score = 5.1 (active); G2 cells, % of GMNN control = 38.8; raw share of cells in G2 (%) = 18.9
FCGR1A (GeneID 2209) #1 → G2 robust z-score = -0.837; G2 cells, % of GMNN control = -2.92; raw share of cells in G2 (%) = 4.15
FCGR1A (GeneID 2209) #2 → G2 robust z-score = 1.53; G2 cells, % of GMNN control = 13.7; raw share of cells in G2 (%) = 8.55

The list goes on.
| gene knocked down | siRNA no. | G2 robust z-score | G2 cells, % of GMNN control | raw share of cells in G2 (%) |
| --- | --- | --- | --- | --- |
| RASA3 (GeneID 22821) | 1 | 0.47 | 6.28 | 8.89 |
| RASA3 (GeneID 22821) | 2 | -1.04 | -4.32 | 2.71 |
| RASA3 (GeneID 22821) | 3 | -0.389 | 0.23 | 3.94 |
| PHTF1 (GeneID 10745) | 1 | -1.18 | -5.31 | 2.12 |
| PHTF1 (GeneID 10745) | 2 | -0.72 | -2.1 | 5.65 |
| PHTF1 (GeneID 10745) | 3 | 3.1 | 24.8 | 16.5 |
| CYSLTR1 (GeneID 10800) | 1 | 0.312 | 5.16 | 7.69 |
| CYSLTR1 (GeneID 10800) | 2 | 1.12 | 10.9 | 8.31 |
| CYSLTR1 (GeneID 10800) | 3 | 0.132 | 3.9 | 4.46 |
| TPGS2 (GeneID 25941) | 1 | 0.0952 | 3.64 | 5.78 |
| TPGS2 (GeneID 25941) | 2 | -0.387 | 0.244 | 4.05 |
| TPGS2 (GeneID 25941) | 3 | 2.35 | 19.5 | 10.1 |
| IKZF1 (GeneID 10320) | 1 | -0.948 | -3.7 | 2.29 |
| IKZF1 (GeneID 10320) | 2 | 1.38 | 12.7 | 11.6 |
| IKZF1 (GeneID 10320) | 3 | -0.588 | -1.17 | 2.85 |
| PPA1 (GeneID 5464) | 1 | -1.44 | -7.17 | 2.46 |
| PPA1 (GeneID 5464) | 2 | 1.47 | 13.3 | 8.32 |
| PPA1 (GeneID 5464) | 3 | 2.26 | 18.9 | 9.18 |
| ALPI (GeneID 248) | 1 | -1.32 | -6.33 | 2.74 |
| ALPI (GeneID 248) | 2 | -1.52 | -7.7 | 1.98 |
| ALPI (GeneID 248) | 3 | 0.544 | 6.8 | 5.54 |
| PRIM1 (GeneID 5557) | 1 | -0.9 | -3.37 | 3.03 |
| PRIM1 (GeneID 5557) | 2 | 2.13 | 17.9 | 11.1 |
| PRIM1 (GeneID 5557) | 3 | -0.564 | -1 | 4.3 |
| NDUFC1 (GeneID 4717) | 1 | -0.553 | -0.924 | 2.89 |
| NDUFC1 (GeneID 4717) | 2 | -0.593 | -1.21 | 4.89 |
| NDUFC1 (GeneID 4717) | 3 | 0.258 | 4.78 | 7.37 |
| DDX10 (GeneID 1662) | 1 | -0.891 | -3.3 | 2.96 |
| DDX10 (GeneID 1662) | 2 | 1.61 | 14.3 | 10.1 |
| DDX10 (GeneID 1662) | 3 | -0.75 | -2.31 | 4.15 |
| KAT2A (GeneID 2648) | 1 | 0.316 | 5.19 | 7.12 |
| KAT2A (GeneID 2648) | 2 | 1.59 | 14.2 | 10.7 |
| KAT2A (GeneID 2648) | 3 | -1.3 | -6.15 | 1.47 |
| LOC728999 (retired record) (GeneID 728999) | 1 | 0.0454 | 3.29 | 5.19 |
| LOC728999 (retired record) (GeneID 728999) | 2 | 10.8 (active) | 79.2 | 28.9 |
| LOC728999 (retired record) (GeneID 728999) | 3 | -0.632 | -1.48 | 2.53 |
